In publication PMC10210458:
No constants are given. Whether binding was seen depends on the method and setting. In cells and extracts the contact can be indirect. Some binding calls cover weakened binding; strength is not graded here. Tags and fused reporters may be left off the sequences shown.

Chains of the proteins cited; added tags and fusions are not shown.
UniProt O43303: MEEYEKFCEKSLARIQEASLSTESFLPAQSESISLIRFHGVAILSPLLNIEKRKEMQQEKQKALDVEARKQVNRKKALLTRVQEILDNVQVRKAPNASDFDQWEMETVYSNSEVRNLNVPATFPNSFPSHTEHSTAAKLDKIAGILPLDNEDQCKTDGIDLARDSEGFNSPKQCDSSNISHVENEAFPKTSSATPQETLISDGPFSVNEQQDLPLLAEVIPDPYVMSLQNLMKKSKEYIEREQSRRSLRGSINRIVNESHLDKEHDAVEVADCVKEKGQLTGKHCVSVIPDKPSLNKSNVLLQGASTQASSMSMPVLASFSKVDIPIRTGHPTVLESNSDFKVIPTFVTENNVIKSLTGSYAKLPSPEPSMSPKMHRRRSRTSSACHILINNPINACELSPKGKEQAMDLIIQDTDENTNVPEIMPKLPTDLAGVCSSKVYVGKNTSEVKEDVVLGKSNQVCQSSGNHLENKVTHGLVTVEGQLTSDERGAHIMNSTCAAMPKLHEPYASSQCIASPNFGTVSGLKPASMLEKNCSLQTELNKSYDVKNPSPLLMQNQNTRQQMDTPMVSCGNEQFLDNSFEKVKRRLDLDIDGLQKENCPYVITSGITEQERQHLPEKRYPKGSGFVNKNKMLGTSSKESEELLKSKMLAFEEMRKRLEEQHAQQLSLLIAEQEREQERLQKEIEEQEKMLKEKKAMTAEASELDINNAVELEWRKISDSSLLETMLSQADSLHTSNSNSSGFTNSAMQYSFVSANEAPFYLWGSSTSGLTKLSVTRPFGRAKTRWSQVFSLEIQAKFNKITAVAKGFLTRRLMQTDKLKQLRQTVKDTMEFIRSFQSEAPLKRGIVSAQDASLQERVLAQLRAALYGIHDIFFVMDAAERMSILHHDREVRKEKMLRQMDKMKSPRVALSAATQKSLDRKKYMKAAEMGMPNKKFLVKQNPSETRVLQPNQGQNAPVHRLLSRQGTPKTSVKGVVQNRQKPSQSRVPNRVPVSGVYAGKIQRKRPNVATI

What was measured:
[1] = molecular target: CP110 (centriolar coiled-coil protein of 110 kDa) (human (endogenous in HEK293T)) (UniProt O43303); assay: co-IP; lysates of control HEK293T cells or cells stably expressing CCP5 precipitated with CP110 or CEP97 polyclonal antibodies on protein A/G magnetic beads, 4 °C, at least 2 h; immunoblot
[2] = molecular target: T1, CEP97 (centrosomal protein of 97 kDa) (human (endogenous in HEK293T)) (UniProt Q8IW35); assay: as above
T1 sequence: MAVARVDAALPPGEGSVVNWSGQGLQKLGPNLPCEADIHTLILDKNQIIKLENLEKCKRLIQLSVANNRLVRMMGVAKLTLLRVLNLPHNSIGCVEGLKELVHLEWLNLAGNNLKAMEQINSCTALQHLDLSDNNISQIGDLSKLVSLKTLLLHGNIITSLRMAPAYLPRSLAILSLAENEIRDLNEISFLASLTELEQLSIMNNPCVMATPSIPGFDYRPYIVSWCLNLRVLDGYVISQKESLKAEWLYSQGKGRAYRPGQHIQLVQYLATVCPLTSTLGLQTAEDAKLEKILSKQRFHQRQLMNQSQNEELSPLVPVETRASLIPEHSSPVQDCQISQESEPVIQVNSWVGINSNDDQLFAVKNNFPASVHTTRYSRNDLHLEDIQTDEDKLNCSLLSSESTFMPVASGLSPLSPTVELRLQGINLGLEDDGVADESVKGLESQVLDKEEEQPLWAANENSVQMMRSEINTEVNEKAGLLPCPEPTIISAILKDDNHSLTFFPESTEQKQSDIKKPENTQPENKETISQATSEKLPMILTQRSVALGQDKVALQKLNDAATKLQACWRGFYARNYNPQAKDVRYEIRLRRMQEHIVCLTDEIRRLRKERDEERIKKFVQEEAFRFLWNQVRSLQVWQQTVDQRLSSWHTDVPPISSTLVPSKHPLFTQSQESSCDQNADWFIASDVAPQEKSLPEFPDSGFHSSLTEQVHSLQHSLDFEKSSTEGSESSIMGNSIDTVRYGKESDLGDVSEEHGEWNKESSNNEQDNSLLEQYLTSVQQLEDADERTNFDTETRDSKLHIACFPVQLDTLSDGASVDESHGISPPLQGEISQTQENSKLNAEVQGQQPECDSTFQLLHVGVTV

B1: myc-tagged CCP5 (cytosolic carboxypeptidase 5), full length (enzyme, UniProt Q8NDL9 1-886)
chain: MELRCGGLLFSSRFDSGNLAHVEKVESLSSDGEGVGGGASALTSGIASSPDYEFNVWTRPDCAETEFENGNRSWFYFSVRGGMPGKLIKINIMNMNKQSKLYSQGMAPFVRTLPTRPRWERIRDRPTFEMTETQFVLSFVHRFVEGRGATTFFAFCYPFSYSDCQELLNQLDQRFPENHPTHSSPLDTIYYHRELLCYSLDGLRVDLLTITSCHGLREDREPRLEQLFPDTSTPRPFRFAGKRIFFLSSRVHPGETPSSFVFNGFLDFILRPDDPRAQTLRRLFVFKLIPMLNPDGVVRGHYRTDSRGVNLNRQYLKPDAVLHPAIYGAKAVLLYHHVHSRLNSQSSSEHQPSSCLPPDAPVSDLEKANNLQNEAQCGHSADRHNAEAWKQTEPAEQKLNSVWIMPQQSAGLEESAPDTIPPKESGVAYYVDLHGHASKRGCFMYGNSFSDESTQVENMLYPKLISLNSAHFDFQGCNFSEKNMYARDRRDGQSKEGSGRVAIYKASGIIHSYTLECNYNTGRSVNSIPAACHDNGRASPPPPPAFPSRYTVELFEQVGRAMAIAALDMAECNPWPRIVLSEHSSLTNLRAWMLKHVRNSRGLSSTLNVGVNKKRGLRTPPKSHNGLPVSCSENTLSRARSFSTGTSAGGSSSSQQNSPQMKNSPSFPFHGSRPAGLPGLGSSTQKVTHRVLGPVREPRSQDRRRQQQPLNHRPAGSLAPSPAPTSSGPASSHKLGSCLLPDSFNIPGSSCSLLSSGDKPEAVMVIGKGLLGTGARMPCIKTRLQARPRLGRGSPPTRRGMKGSSGPTSPTPRTRESSELELGSCSATPGLPQARPPRPRSAPAFSPISCSLSDSPSWNCYSRGPLGQPEVCFVPKSPPLTVSPRV
binding [1]: binds | binding [2]: no binding
